No constants are given. Whether binding was seen depends on the method and setting. A result given as binding can be weak or reduced; the word gives no strength.
Assays:
Experiment in all cases: ELISA, antigen coated at 50 ng/well
[1] = target: canine B7-H3 antigen protein (canine)
[2] = target: cynomolgus B7-H3 antigen protein (Sino Biologicals; Cat. No. 90806-C08H-20) (cynomolgus)
[3] = target: rabbit B7-H3 antigen protein (rabbit)

Measured: binding

B1: anti-B7-H3 antibody (VA clone) (antibody, V domains shown)
VH: QVQLVQSGAEVKKPGASVKVSCKASGYTFTDSYMHWVRQAPGQGLEWMGWISPRTGGTDYAQKFQGRVTMTRDTSISTAYMELSRLRSDDTAVYYCARGSSRGNDYWGQGTLVTVSS
VL: QSVLTQPASVSGSPGQSITISCTGTGSDVGGYNYVSWYQQHPGKAPKLIIYDVTKRPSGFSNRFSGSKSGNTASLTISGLQAEDEADYYCSSYTSRRTYVFGTGTKLTVL
binds: [1] | [2] | [3]
